Measurements from patent publication EP4830731A1, “TUMOR MICROENVIRONMENT-ACTIVATED DRUG CONJUGATE AND ANTIBODY-DRUG CONJUGATE” (dated 2026).
The match of structure and compound is tentative.

How the values were obtained:
[1] = Aqueous solution stability (HPLC); settings: content relative to 0 hour by HPLC, 0.2 µmol/mL in DMSO/water, water bath 25 °C / 37 °C
Protocol: Each drug conjugate compound was accurately weighed and dissolved in a certain amount of DMSO to prepare a stock solution at a concentration of 10 µmol/mL. Then, 10 µL of the stock solution was added to 80 µL of DMSO to dilute to a concentration of 1 µmol/mL, and then further diluted with pure water at a ratio of 1:4 to achieve a sample solution concentration of 0.2 µmol/mL. After the sample became clear, it was placed in a water bath at 25 °C / 37 °C. Samples were taken at 0 hour and 24 hours and analyzed by HPLC (Agilent 1260, column: Eclipse Plus C18, 4.6×250 mm, 5 µm; mobile phase A: 0.1% TFA + H2O; mobile phase B: CH3CN; flow rate: 1.0 mL/min; column temperature: 30 °C; detection wavelength: 214 nm) to determine the content of the drug conjugate relative to that at 0 hour, thereby obtaining the solution stability data of the different compounds.

[2] = Human plasma stability (HPLC); settings: 37 °C
Protocol: An appropriate amount of sample was weighed and dissolved in DMSO to prepare a 1 mM solution. Human plasma was added at a volume ratio of 1:9, and the mixture was incubated in an incubator at 37 °C. Aliquots were taken at 0, 2, 4, 6, and 24 hours, and DMSO/MeOH (1:1) was added at a volume ratio of 1:3 to remove proteins. The mixture was centrifuged at 12000 rpm for 5 minutes, and the supernatant was collected. The HPLC analysis was performed using the method described above (Agilent 1260, column: Eclipse Plus C18, 4.6 * 250 mm, 5 µm; mobile phase A: 0.1% TFA + H2O; mobile phase B: CH3CN; flow rate: 1.0 mL/min; column temperature: 30 °C; detection wavelength: 214 nm).

[3] = tested on: acidified CT-26 tumor tissue homogenate; experiment: Enzymatic cleavage (activation) in tumor tissue homogenate; settings: acidified CT-26 tumor tissue homogenate pH 5.0, 37°C, released drug by HPLC
Protocol: A certain amount of the drug conjugates were weighed, dissolved, and diluted tenfold to a concentration of 0.1 mM/ml. The drug conjugates were added at a concentration of 1 mg/ml to 100 µg of acidified CT-26 tumor tissue homogenate (pH 5.0) at 37°C. The enzymes in the tumor tissue homogenate were able to release the drug, and the released drug was detected by HPLC to compare the activation efficiency of the linker in the tumor tissue.

[4] = Lung tissue homogenate stability (Dxd release); settings: pH 5.0, 37°C
Protocol: Detection buffer: 25 mM MES, pH 5.0.
Protein precipitant: DMSO/MeOH = 1:1.
Preparation of sample solution: Appropriate amounts of 6PEG-lys(MI-6PEG)-AAN-AM-Dxd and EMC-GGFG-AM-Dxd were weighed and a certain amount of DMSO was added to prepare a stock solution at a concentration of 10 µmol/mL. Then, 10 µL of the stock solution was taken and diluted with 80 µL of DMSO to a concentration of 1 µmol/mL, and then further diluted with pure water at a ratio of 1:4 to achieve a sample solution concentration of 0.2 µmol/mL.
An appropriate amount of flash-frozen lung in liquid nitrogen was placed in a 4 mL EP tube, weighed, and the detection buffer (pH 5.0) was added at a mass-to-volume ratio of 1:5. The tissue was homogenized for 3 min using a tissue grinder, and then the lung tissue homogenate was centrifuged at 12000 rpm for 5 min. The supernatant was collected and stored in a -40°C refrigerator for later use.
The sample solution and the lung tissue homogenate were shaken thoroughly at a volume ratio of 1:9. Another sample solution and the buffer (pH 5.0) were shaken thoroughly at a volume ratio of 1:9 as a blank control solution. The mixtures were placed in a 37°C constant temperature water bath. The sample was taken at 0 h, 2 h, 4 h, and 20 h, 30 µL, respectively, and 90 µL of the protein precipitant was added, the mixture was shaken thoroughly, centrifuged at 12000 rpm for 5 min, the supernatant was transferred to a sampling vial, and HPLC injection was performed.
The percentage of DXD released after the drug entered the lung tissue homogenate was calculated using the following formula: [formula]

SMILES	Aqueous solution stability % (24 h) [1] [%]	Plasma stability % (24 h) [2] [%]	Enzymatic cleavage efficiency % (2 h) [3] [%]	Dxd (%) ([4]; Time 0 h)	Dxd (%) ([4]; Time 2 h)	Dxd (%) ([4]; Time 4 h)	Dxd (%) ([4]; Time 20 h)
CC[C@@]1(O)C(=O)OCc2c1cc1n(c2=O)Cc2c-1nc1cc(F)c(C)c3c1c2[C@@H](NC(=O)COCNC(=O)[C@H](CC(N)=O)NC(=O)[C@H](C)NC(=O)[C@H](C)NC(=O)CCOCCOCCOCCOCCOCCOCCNC(=O)CCN1C(=O)C=CC1=O)CC3	100	99	98				
CC[C@@]1(O)C(=O)OCc2c1cc1n(c2=O)Cc2c-1nc1cc(F)c(C)c3c1c2[C@@H](NC(=O)COCNC(=O)[C@H](CC(N)=O)NC(=O)[C@H](C)NC(=O)[C@H](C)NC(=O)[C@H](CCCCNC(=O)CCCCCN1C(=O)C=CC1=O)NC(=O)COCCOCCOCCOCCOCCOC)CC3	100	98	97				
CC[C@@]1(O)C(=O)OCc2c1cc1n(c2=O)Cc2c-1nc1cc(F)c(C)c3c1c2[C@@H](NC(=O)COCNC(=O)CNC(=O)[C@H](Cc1ccccc1)NC(=O)CNC(=O)CNC(=O)CCCCCN1C(=O)C=CC1=O)CC3				1.47	3.39	14.58	30.93
CC[C@@]1(O)C(=O)OCc2c1cc1n(c2=O)Cc2c-1nc1cc(F)c(C)c3c1c2[C@@H](NC(=O)OCc1ccc(NC(=O)[C@H](CC(N)=O)NC(=O)[C@H](C)NC(=O)[C@H](C)NC(=O)CCOCCOCCOCCOCCOCCOCCNC(=O)CCN2C(=O)C=CC2=O)cc1)CC3	95	88	95				
CCCCc1nc2c(N)nc3ccccc3c2n1CCCCNC(=O)OCc1ccc(NC(=O)[C@H](CC(N)=O)NC(=O)[C@H](C)NC(=O)[C@H](C)NC(=O)CCCCCN2C(=O)C=CC2=O)cc1	95	85	90				
CCOCc1nc2c(NC(=O)[C@H](CC(N)=O)NC(=O)[C@H](C)NC(=O)[C@H](C)NC(=O)CCOCCOCCOCCOCCOCCOCCNC(=O)CCN3C(=O)C=CC3=O)nc3ccccc3c2n1CC(C)(C)O	95	85	90				
CC[C@@]1(O)C(=O)OCc2c1cc1n(c2=O)Cc2c-1nc1cc(F)c(C)c3c1c2[C@@H](NC(=O)COCNC(=O)[C@H](CC(N)=O)NC(=O)[C@H](C)NC(=O)[C@H](C)NC(=O)[C@H](CCCCNC(=O)COCCOCCOCCOCCOCCOC)NC(=O)CCCCCN1C(=O)C=CC1=O)CC3	100	98	98				
CC[C@@]1(O)C(=O)OCc2c1cc1n(c2=O)Cc2c-1nc1cc(F)c(C)c3c1c2[C@@H](NC(=O)COCNC(=O)[C@H](CC(N)=O)NC(=O)[C@H](C)NC(=O)[C@H](C)NC(=O)CCCCCN1C(=O)C=CC1=O)CC3	99	100	95				
CCCCc1nc2c(N)nc3ccccc3c2n1CCCCNC(=O)[C@H](CC(N)=O)NC(=O)[C@H](C)NC(=O)[C@H](C)NC(=O)CCOCCOCCOCCOCCOCCOCCNC(=O)CCN1C(=O)C=CC1=O	99	100	95				
CCCCc1nc2c(N)nc3ccccc3c2n1CCCCNC(=O)OCc1ccc(NC(=O)[C@H](CC(N)=O)NC(=O)[C@H](C)NC(=O)[C@H](C)NC(=O)CCOCCOCCOCCOCCOCCOCCNC(=O)CCN2C(=O)C=CC2=O)cc1	95	88	90				
